The whole screen tested about 300,000 compounds, of which about 5,400 (1.8%) were called active. Inconclusive results, whose numbers are uncertain, are shown with a selection of clear calls. Calls come from the whole dose curve; tested in HEK293 cells. Potencies beside an inconclusive call are fits to weak or partial responses and may not hold up. Some structures have more than one record in an assay (separate samples or runs), and their calls can disagree.
test: qHTS for inhibitors of binding or entry into cells for Marburg Virus; conditions: Marburg virus pseudotyped entry inhibition, cell reporter; activity change, negative = inhibition: at 37.8 µM (top of the series) unless noted
% is set by controls: 0 for no effect and ±100 for the full control effect; potency is the fitted concentration of half-maximal effect.

Row | Structure (SMILES) | Potency | activity change, negative = inhibition
1 | CC1CCN(C(=O)COC(=O)c2ccc3c(c2)OCO3)CC1 | inconclusive: 11.2 µM [inhibitor, partial curve, poor fit] | –
2 | CCOc1ccc(N2Cc3ccccc3C2)cc1 | inconclusive: 5.01 µM [activator, single point] | –
3 | COc1ccc(O)c(-c2cc(-c3cccs3)[nH]n2)c1 | inconclusive: 2.82 µM [activator, full curve, poor fit] | –
4 | CC(C)(C)c1ccc(/C=C(\C#N)C(=O)NCCN2CCOCC2)cc1 | – | inactive: 8.75% [at 46.1 µM]
5 | O=C(Nc1cccc(F)c1)C1CCN(S(=O)(=O)c2cccc3nsnc23)CC1 | inconclusive: 14.1 µM [inhibitor, single point] | –
6 | COc1cc2c(cc1OC)CN(c1ccc(-c3ccccc3OC)nn1)CC2 | inconclusive: 0.891 µM [inhibitor, full curve, poor fit] | –
7 | CC1Cc2ccccc2N1Cc1nc2cc(C(F)(F)F)ccc2c(=O)[nH]1 (stereo unspecified) | inconclusive: 8.91 µM [inhibitor, single point] | –
8 | CCOc1ccc(C(=O)NC(=S)Nc2ccccc2N2CCC(C)CC2)cc1[N+](=O)[O-] | inconclusive: 7.08 µM [inhibitor, partial curve] | –
9 | COc1cc(C)c(Br)cc1S(=O)(=O)NCc1ccncc1 | inconclusive: 3.55 µM [inhibitor, single point] | –
10 | COc1cccc(OC)c1C1=NCC(=O)Nc2c1oc1ccc(Br)cc21 | inconclusive: 16.4 µM [inhibitor, single point] | –
11 | Cc1ccc(OCCCCNC2CCCC(C)C2C)c(C)c1 (stereo unspecified) | active: 11.2 µM | –
12 | Cc1ccc(Cl)cc1NC(=S)N(Cc1ccco1)C(C)c1cccs1 (stereo unspecified) | inconclusive: 4.47 µM [inhibitor, partial curve, poor fit] | –
13 | COC(=O)CN1CCN(C(c2ccccc2)c2ccccc2)CC1 | inconclusive: 6.51 µM [inhibitor, full curve, poor fit] | –
14 | COc1ccc(CN(C)C(=O)CCCNC(=O)c2ccc(Cl)cc2)cc1 | inconclusive: 7.08 µM [inhibitor, partial curve, poor fit] | –
15 | CC12CC3CC(C1)CC(C(=O)NNC(=O)c1ccncc1)(C3)C2 | – | inactive: 16% [at 46.1 µM]
16 | CN(Cc1ccccc1)C(=O)CCC(=O)N(C)Cc1ccccc1 | – | inactive: -17.4%
17 | CCN(CC)C(=O)Nc1ccc2c(c1)N(Cc1ccccc1)C(=O)c1ccccc1S2 | inconclusive: 0.891 µM [activator, full curve, poor fit] | –
18 | CCOc1ccc(NS(=O)(=O)c2ccc(NC(=O)c3cccnc3)c(OC)c2)cc1 | inconclusive: 3.55 µM [inhibitor, full curve, poor fit] | –
19 | O=C(Nc1ccccc1)N1N=CCC1c1ccccc1 (stereo unspecified) | – | inactive: 0% [at 46.1 µM]
20 | Cc1ccc(-c2nn3c(C)nnc3s2)cc1NC(=O)c1ccc(-c2cccc(Cl)c2)o1 | active: 9.2 µM | –
21 | O=C(Nc1ccccc1)c1ccc(N2CCN(c3ccccn3)CC2)c(S(=O)(=O)N2CCOCC2)c1 | inconclusive: 29.1 µM [inhibitor, partial curve, poor fit] | –
22 | COc1cccc(/C(O)=C/c2nc3ccc(C(=O)NCCc4ccc(Cl)cc4)cc3[nH]c2=O)c1 | inconclusive: 10.3 µM [inhibitor, partial curve] | –

Row | Structure (SMILES) | Potency | activity change, negative = inhibition
23 | Cc1ccc(NC(=O)Cn2c(/C=C/c3ccccc3)nc3ccccc32)cc1C | – | inactive: -29.1%
24 | Cc1onc(-c2ccccc2Cl)c1C(=O)NC(=S)NCc1cccnc1 | – | inactive: -25.2% [at 46.1 µM]
25 | COc1ccccc1N1CCN(C(=O)c2ccc(Cl)c(S(=O)(=O)NCc3ccco3)c2)CC1 | inconclusive: 7.08 µM [inhibitor, full curve] | –
26 | CCCC(C)C(=O)Nc1ccc(S(N)(=O)=O)cc1 (stereo unspecified) | inconclusive: 2 µM [inhibitor, partial curve, poor fit] | –
27 | CC(=O)n1cc(N(C(=O)CCl)c2ccccc2)c2ccccc21 | inconclusive: 10 µM [inhibitor, partial curve, poor fit] | –
28 | O=C1N(CC2CC2)c2cccc(Br)c2[C@@]12O[C@H](COc1ccccc1)CC1=CCCC12 (stereo partly specified) | inconclusive: 0.0047 µM [inhibitor, full curve, poor fit] | –
29 | N#CC1=C2SCN(Cc3ccco3)CN2C(=O)CC1c1cccc2ccccc12 (stereo unspecified) | – | inactive: -17.2%
30 | O=C(Nc1nnc(SCC(=O)N2CCCC2)s1)C1CC(=O)N(c2ccc(F)cc2)C1 (stereo unspecified) | inconclusive: 1.26 µM [inhibitor, partial curve, poor fit] | –
31 | CCC(C(=O)NCCc1ccc(S(N)(=O)=O)cc1)c1ccccc1 (stereo unspecified) | – | inactive: 5.61% [at 46.1 µM]
32 | OC1COC(c2ccccc2)OC1C(O)C1OC(c2ccccc2)OCC1O (stereo unspecified) | inconclusive: 35.5 µM [inhibitor, single point] | –
33 | CCOC(=O)N1CCC(NC(=O)c2cc3sccc3n2CC)CC1 | – | inactive: -27%
34 | CCCOc1ccc(OCCOCCN2CCc3ccccc3C2)cc1 | – | inactive: -37%
35 | Cc1c(C(c2ccccc2Cl)c2c(O)c3ccccc3oc2=O)c(=O)n(-c2ccccc2)n1C (stereo unspecified) | inconclusive: 2 µM [inhibitor, partial curve, poor fit] | –
36 | COC(=O)C1=C(C)Nc2nnnn2C1c1ccccc1Cl (stereo unspecified) | inconclusive: 5.62 µM [activator, single point] | –
37 | COc1ccc(C2=NNC(c3cccnc3)=Nc3ccccc32)cc1 | – | inactive: 4.04% [at 46.1 µM]
38 | O=C(Nc1ccc2c(c1)OCCO2)C1CCCN1C(=O)Nc1ccc(F)cc1 (stereo unspecified) | – | inactive: -9.52% [at 46.1 µM]
39 | CCOC(=O)N1CCC(N2C(=O)c3ccccc3C2Nc2ccc(S(=O)(=O)N(CC)CC)cc2)CC1 (stereo unspecified) | inconclusive: 35.5 µM [inhibitor, single point] | –
40 | Cc1ccc(/C=C(\C#N)c2nn(-c3ccccc3)c(N)c2C#N)cc1 | – | inactive: -5.53%
41 | CC(Sc1n[nH]c(N)n1)C(=O)Nc1cccc(S(=O)(=O)N2CCOCC2)c1 (stereo unspecified) | inconclusive: 1.58 µM [activator, single point] | –
42 | Oc1ccccc1C(Nc1nccs1)c1ccc2cccnc2c1O (stereo unspecified) | active: 11.6 µM | –
43 | O=C(Nc1ccc(Cl)cc1)Nc1ccccc1C(=O)O | inconclusive: 2.51 µM [inhibitor, full curve, poor fit] | –
44 | CCc1ccc(C(c2c(C)nn(-c3ccccc3)c2N)c2c(C)nn(-c3ccccc3)c2N)cc1 | inconclusive: 18.4 µM [inhibitor, single point] | –

Row | Structure (SMILES) | Potency | activity change, negative = inhibition
45 | CCCc1ccc2oc(C(=O)N3CCN(c4cnccn4)CC3)c(C)c2c1 | inconclusive: 3.16 µM [inhibitor, single point] | –
46 | CS(=O)(=O)N1N=C(c2cccs2)CC1c1ccccc1O (stereo unspecified) | – | inactive: -0.933% [at 46.1 µM]
47 | CCN(CCNc1ccc(Cl)cc1[N+](=O)[O-])C(=O)c1cc([N+](=O)[O-])c(N(C)C)cc1OC | inconclusive: 29.1 µM [inhibitor, single point] | –
48 | COc1ccc(NC(=O)CSc2nc(N)c3cc4c(nc3n2)CCCC4)cc1 | inconclusive: 0.501 µM [activator, partial curve, poor fit] | –
49 | CCCN(Cc1cccs1)C(=O)Nc1cc(OC)ccc1OC | inconclusive: 35.5 µM [inhibitor, single point] | –
50 | C[n+]1cc[nH]c1SCC(=O)c1ccc(Cl)cc1 | inconclusive: 0.562 µM [activator, full curve, poor fit] | –
51 | COC(=O)c1nccnc1N | inconclusive: 1.26 µM [inhibitor, single point] | –
52 | CCN(CCCNC(=O)C1c2ccccc2C(=O)N(CCOC)C1c1ccc(F)cc1)Cc1ccccc1 (stereo unspecified) | inconclusive: 10 µM [inhibitor, partial curve, poor fit] | –
53 | CCCC(=O)N1c2ccccc2[C@@H](N(C(C)=O)c2ccccc2)C[C@H]1C | inconclusive: 0.126 µM [activator, full curve, poor fit] | –
54 | CCn1c(SC(C)C(=O)NCC2CCCO2)nc2scc(-c3ccccc3)c2c1=O (stereo unspecified) | inconclusive: 15.8 µM [inhibitor, single point] | –
55 | COc1ccccc1Cn1cc(C(=O)c2ccc(C)cc2)c(=O)c2cc3c(cc21)OCCO3 | – | inactive: -15.2% [at 46.1 µM]
56 | CCOc1ccc(NC(=O)CC2C(=O)N(CC)C(=S)N2NC(=O)c2ccncc2)cc1 (stereo unspecified) | – | inactive: -13.2%
57 | FC(F)(F)C1=CC(c2ccccc2)=NCCN1 | inconclusive: 3.55 µM [activator, single point] | –
58 | Cn1ncc2c(Nc3ccc4ccccc4c3)ncnc21 | inconclusive: 29.1 µM [inhibitor, single point] | –
59 | CCCc1nc2ccccc2c(C(=O)OCC(=O)Nc2ccc(S(=O)(=O)N3CCOCC3)cc2)c1CC | inconclusive: 18.3 µM [inhibitor, partial curve, poor fit] | –
60 | Brc1ccc(NCc2cccc3ccccc23)nc1 | inconclusive: 18.3 µM [inhibitor, partial curve, poor fit] | –
61 | COc1ccccc1N(CC(=O)Nc1cc(S(=O)(=O)N(C)C)ccc1C)S(=O)(=O)c1cccs1 | inconclusive: 17.8 µM [inhibitor, single point] | –
62 | Cc1nn(-c2ccccc2)cc1C(=S)Nc1ccccc1 | inconclusive: 7.08 µM [activator, partial curve, poor fit] | –
63 | CC(NCCC1(Cc2ccccc2Cl)CCOC(C)(C)C1)c1cccs1 (stereo unspecified) | inconclusive: 22.4 µM [inhibitor, partial curve, poor fit] | –
64 | Cc1ccc(Cl)cc1N1CCN(C(c2cccnc2)c2nnnn2C2CCCCC2)CC1 (stereo unspecified) | active: 14.6 µM | –
65 | CC(C)Oc1ccc(C(=O)Nc2nnc(SCC(=O)N3CCOCC3)s2)cc1 | inconclusive: 1.26 µM [inhibitor, full curve, poor fit] | –
66 | COc1ccc(CCC(=O)Nc2cnc3ccccc3c2)cc1 | inconclusive: 5.62 µM [activator, single point] | –

Full records, looked up by structure.
`CCN(CCNc1ccc(Cl)cc1[N+](=O)[O-])C(=O)c1cc([N+](=O)[O-])c(N(C)C)cc1OC` as listed: Potency: inconclusive: 29.1 µM [inhibitor, single point]
`CCCc1ccc2oc(C(=O)N3CCN(c4cnccn4)CC3)c(C)c2c1` as listed: Potency: inconclusive: 3.16 µM [inhibitor, single point]
`Cn1ncc2c(Nc3ccc4ccccc4c3)ncnc21` as listed: Potency: inconclusive: 29.1 µM [inhibitor, single point]

From PubChem BioAssay AID540276 (National Center for Advancing Translational Sciences (NCATS), 2011)
